Some of these results come from one statement about several compounds together.
Test: Mouse Karpas422 CDX model, body weight
Format: in vivo, balb/c nude mice
Conditions: different dosages

Structure (SMILES)	body weight changes of the mice after administration (FIG. 2)
Fc1ccc2c(c1CNc1ncc(OC3CCOCC3)c3nncn13)CCO2 [HJM-016]	less than 10%
CN(C(=O)C1CC1)c1cnc(NCc2c(F)ccc3c2CCO3)n2cnnc12 [HJM-045]	less than 10%
Fc1ccc2c(c1CNc1ncc(OCC3COC3)c3nncn13)CCO2 [HJM-104]	less than 10%

Source: patent US12552796B2, “EED inhibitor, and preparation method therefor and use thereof” (SHANGHAITECH UNIVERSITY, priority 2019, dated 2026)
